Test results from patent US20130344509A1 (published 2013).
Residue numbers refer to the chain shown, from its start. In names and notes the source's numbering stands. These are yes or no findings as the source states them, for the method shown. Some entries that bind do so weakly or less than the wild type. Each block holds one binder with its values, some of them ahead of it.

Amino acid sequences for entries named in this document (tags omitted). A change or cut given only in a name is not applied to a line headed by its entry.
UniProt P09758: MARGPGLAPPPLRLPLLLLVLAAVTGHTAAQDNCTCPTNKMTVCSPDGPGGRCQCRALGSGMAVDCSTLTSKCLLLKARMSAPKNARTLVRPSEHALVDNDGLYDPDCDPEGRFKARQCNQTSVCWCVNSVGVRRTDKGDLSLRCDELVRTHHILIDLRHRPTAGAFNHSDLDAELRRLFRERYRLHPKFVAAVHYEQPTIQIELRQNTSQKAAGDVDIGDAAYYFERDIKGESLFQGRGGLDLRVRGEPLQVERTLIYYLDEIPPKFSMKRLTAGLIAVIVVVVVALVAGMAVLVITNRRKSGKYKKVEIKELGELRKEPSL

What was measured:
[1] = target: recombinant hTACSTD2-Fc-His protein (Creative BioMart) (human) (UniProt P09758); assay: low-density antigen-coated ELISA, culture supernatants
[2] = target: recombinant hTACSTD2-Fc-His protein (Creative BioMart) (human) (UniProt P09758); assay: high-density antigen-coated ELISA, plate coated with 1 µg/mL hTROP-2
[3] = target: recombinant hTACSTD2-Fc-His protein (Creative BioMart) (human) (UniProt P09758); assay: low-density antigen-coated ELISA, plate coated with 0.1 µg/mL hTROP-2 (hTACSTD2-Fc-His)

binding [1]: binds
binding [2]: binds
binding [3]: binds
B1: HuK5-70-2 antibody (HuK5-70 R44G mutant antibody) (antibody, V domains shown)
VH: QVQLVQSGAEVKKPGASVKVSCKASGYTFTIYWINWVRQAPGQGLEWIGNIYPSDSYTNYNQKFKDKATLTVDTSASTAYMELSSLRSEDTAVYYCTRTSMADYWGQGTLVTVSS
VL: EIVLTQSPATLSLSPGERATLSCRASQSIGTSIHWYQQKPGQAPRLLIKYASESISGIPARFSGSGSGTDFTLTISSLEPEDFAVYYCQQSNSWPFTFGQGTKVEIK

binding [2]: binds
B2: humanized K5-70 antibody (HuK5-70) (antibody, V domains shown)
VH: B1 VH with G44R
VL: B1 VL
